Measured values reported in US8207177B2, “Inhibitors of E1 activating enzymes” (Millennium Pharmaceuticals, Inc., priority 2006, dated 2012).
Some of these results come from one statement about several compounds together.

target: T1, recombinant human NAE enzyme (Homo sapiens, UniProt Q8TBC4); test: Nedd8-Activating Enzyme (NAE) HTRF Assay; assay type: biochemical; conditions: threshold statement: less than or equal to 10 μM; 20 μM ATP, 90 minutes at 24° C.
T1 construct: His (N); made in house; host or cells: Sf9 insect cells (baculovirus, Bac-to-Bac), purified on Ni-NTA
T1 sequence (Q8TBC4 1-463): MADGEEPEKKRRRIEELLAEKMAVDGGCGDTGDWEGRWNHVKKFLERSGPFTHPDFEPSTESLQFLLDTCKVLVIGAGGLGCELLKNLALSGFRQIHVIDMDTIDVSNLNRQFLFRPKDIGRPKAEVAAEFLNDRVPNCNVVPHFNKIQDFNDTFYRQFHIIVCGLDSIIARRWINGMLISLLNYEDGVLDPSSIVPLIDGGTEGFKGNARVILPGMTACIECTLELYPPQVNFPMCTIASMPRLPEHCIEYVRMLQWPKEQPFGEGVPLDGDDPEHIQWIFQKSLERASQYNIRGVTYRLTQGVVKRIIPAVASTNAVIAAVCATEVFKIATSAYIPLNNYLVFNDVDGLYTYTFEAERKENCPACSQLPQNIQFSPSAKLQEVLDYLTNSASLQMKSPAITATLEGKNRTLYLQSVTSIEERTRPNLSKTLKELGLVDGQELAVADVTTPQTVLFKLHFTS
T1 sequence (Q13564 1-534 partner): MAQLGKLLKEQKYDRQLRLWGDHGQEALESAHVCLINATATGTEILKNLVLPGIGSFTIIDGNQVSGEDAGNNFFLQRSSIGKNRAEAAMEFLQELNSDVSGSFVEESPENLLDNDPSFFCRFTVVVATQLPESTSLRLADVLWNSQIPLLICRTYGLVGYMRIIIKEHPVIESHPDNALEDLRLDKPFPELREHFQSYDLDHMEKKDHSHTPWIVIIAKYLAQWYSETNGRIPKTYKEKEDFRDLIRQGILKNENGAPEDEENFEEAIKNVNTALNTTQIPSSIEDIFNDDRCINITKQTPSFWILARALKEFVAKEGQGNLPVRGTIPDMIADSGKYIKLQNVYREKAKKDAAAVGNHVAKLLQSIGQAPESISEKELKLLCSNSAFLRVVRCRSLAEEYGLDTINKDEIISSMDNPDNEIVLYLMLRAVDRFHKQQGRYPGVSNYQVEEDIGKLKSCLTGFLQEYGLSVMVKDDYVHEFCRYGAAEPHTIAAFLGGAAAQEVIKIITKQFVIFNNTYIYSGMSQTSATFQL
Protocol: Following manufacturer instructions, baculoviruses were generated with the Bac-to-Bac Expression System (Invitrogen) for the following proteins: untagged NAEα (APPBP1; NP_003896.1), N-terminally His-tagged NAEβ (UBE1C; NP_003959.3), untagged SAEα (SAE1; NP_005491.1), N-terminally His-tagged SAEβ (UBA2; NP_005490.1), N-terminally His-tagged murine UAE (UBE1X; NP_033483). NAEα/His-NAEβ and SAEα/His-SAEβ complexes were generated by co-infection of Sf9 cells, which were harvested after 48 hours. His-mUAE was generated by single infection of Sf9 cells and harvested after 72 hours. Expressed proteins were purified by affinity chromatography (Ni—NTA agarose, Qiagen) using standard buffers. Ubc12 (UBE2M; NP_003960.1), Ubc9 (UBE2I; NP_003336.1), Ubc2 (UBE2A; NP_003327.2) were subcloned into pGEX (Pharmacia) and expressed as N-terminally GST tagged fusion proteins in E. coli. Expressed proteins were purified by conventional affinity chromatography using standard buffers. Nedd8 (NP_006147), Sumo-1 (NP_003343) and Ubiquitin (with optimized codons) were subcloned into pFLAG-2 (Sigma) and expressed as N-terminally Flag tagged fusion proteins in E. coli. Expressed proteins were purified by conventional chromatography using standard buffers. Nedd8-Activating Enzyme (NAE) HTRF Assay. The NAE enzymatic reaction totaled 50 μL and contained 50 mM HEPES (pH 7.5), 0.05% BSA, 5 mM MgCl2, 20 μM ATP, 250 μM GSH, 0.01 μM Ubc12-GST, 0.075 μM Nedd8-Flag and 0.28 nM recombinant human NAE enzyme. The enzymatic reaction mixture, with and without compound inhibitor, was incubated at 24° C. for 90 minutes in a 384-well plate before termination with 25 μL of Stop/Detection buffer (0.1M HEPES pH 7.5, 0.05% Tween20, 20 mM EDTA, 410 mM KF, 0.53 nM Europium-Cryptate labeled monoclonal anti-FLAG M2 antibody (CisBio International) and 8.125 μg/mL PHYCOLINK goat anti-GST allophycocyanin (XL-APC) antibody (Prozyme)). After incubation for 3 hours at 24° C., quantification of the FRET was performed on the Analyst™ HT 96.384 (Molecular Devices).

IC50, ≤ 10 µM:
CC1(C)C[C@H](Nc2ncnc3c2ccn3[C@@H]2C[C@@H](COS(N)(=O)=O)[C@@H](O)C2)c2ccccc21 (single isomer, unassigned) [Compound I-14]
CC1(C)C[C@@H](Nc2ncnc3c2ccn3[C@@H]2C[C@@H](COS(N)(=O)=O)[C@@H](O)C2)c2ccccc21 (single isomer, unassigned) [Compound I-21]
COC[C@H]1Cc2ccccc2C1Nc1ncnc2c1ccn2[C@@H]1C[C@@H](COS(N)(=O)=O)[C@@H](O)C1 (stereo in doubt) [Compound I-80, [(1S,2S,4R)-2-hydroxy-4-(4-{[(1S,2S)-2-(methoxymethyl)-2,3-dihydro-1H-inden-1-yl]amino}-7H-pyrrolo[2,3-d]pyrimidin-7-yl)cyclopentyl]methyl sulfamate]
NS(=O)(=O)OC[C@@H]1C[C@@H](n2ccc3c(NCc4ccccc4Cl)ncnc32)C[C@@H]1O [Compound I-1, ((1S,2S,4R)-4-{4-[(2-chlorobenzyl)amino]-7H-pyrrolo[2,3-d]pyrimidin-7-yl}-2-hydroxycyclopentyl)methyl sulfamate]
NS(=O)(=O)OC[C@@H]1C[C@@H](n2ccc3c(NCc4ccccc4OC(F)F)ncnc32)C[C@@H]1O [Compound I-2, [(1S,2S,4R)-4-(4-{[2-(difluoromethoxy)benzyl]amino}-7H-pyrrolo[2,3-d]-pyrimidin-7-yl)-2-hydroxycyclopentyl]methyl sulfamate]
C[C@@H](c1ccccc1)N(C)c1ncnc2c1ccn2[C@@H]1C[C@@H](COS(N)(=O)=O)[C@@H](O)C1 [Compound I-3, [(1S,2S,4R)-2-hydroxy-4-(4-{methyl[(1S)-1-phenylethyl]amino}-7H-pyrrolo-[2,3-d]pyrimidin-7-yl)cyclopentyl]methyl sulfamate]
C[C@H](Nc1ncnc2c1ccn2[C@@H]1C[C@@H](COS(N)(=O)=O)[C@@H](O)C1)c1ccccc1 [Compound I-4, [(1S,2S,4R)-2-hydroxy-4-(4-{[(1S)-1-phenylethyl]amino}-7H-pyrrolo[2,3-d]-pyrimidin-7-yl)cyclopentyl]methyl sulfamate]
C[C@]1(O)C[C@H](n2ccc3c(NCc4ccc(Cl)cc4)ncnc32)C[C@H]1COS(N)(=O)=O [Compound I-5, ((1S,2S,4R)-4-{4-[(4-chlorobenzyl)amino]-7H-pyrrolo[2,3-d]pyrimidin-7-yl}-2-hydroxy-2-methylcyclopentyl)methyl sulfamate]
CN(c1ncnc2c1ccn2[C@@H]1C[C@@H](COS(N)(=O)=O)[C@@H](O)C1)[C@H]1CCc2ccccc21 [Compound I-6, ((1S,2S,4R)-4-{4-[(1S)-2,3-dihydro-1H-inden-1-yl(methyl)amino]-7H-pyrrolo-[2,3-d]pyrimidin-7-yl}-2-hydroxycyclopentyl)methyl sulfamate]
C[C@@H](Nc1ncnc2c1ccn2[C@@H]1C[C@@H](COS(N)(=O)=O)[C@@H](O)C1)c1ccccc1 [Compound I-7, [(1S,2S,4R)-2-hydroxy-4-(4-{[(1R)-1-phenylethyl]amino}-7H-pyrrolo[2,3-d]-pyrimidin-7-yl)cyclopentyl]methyl sulfamate]
NS(=O)(=O)OC[C@@H]1C[C@@H](n2ccc3c(NCc4ccc(C(F)(F)F)cc4)ncnc32)C[C@@H]1O [Compound I-8, [(1S,2S,4R)-2-hydroxy-4-(4-{[4-(trifluoromethyl)benzyl]amino}-7H-pyrrolo-[2,3-d]pyrimidin-7-yl)cyclopentyl]methyl sulfamate]
CC(=O)Nc1ncnc2c1ccn2[C@@H]1C[C@@H](COS(N)(=O)=O)[C@@H](O)C1 [Compound I-9, {(1S,2S,4R)-4-[4-(acetylamino)-7H-pyrrolo[2,3-d]pyrimidin-7-yl]-2-hydroxycyclopentyl}methyl sulfamate]
CN(Cc1ccccc1)c1ncnc2c1ccn2[C@@H]1C[C@@H](COS(N)(=O)=O)[C@@H](O)C1 [Compound I-10, ((1S,2S,4R)-4-}4-[benzyl(methyl)amino]-7H-pyrrolo[2,3-d]pyrimidin-7-yl}-2-hydroxycyclopentyl)methyl sulfamate]
NS(=O)(=O)OC[C@H]1CC[C@H](n2ccc3c(N[C@H]4CCc5ccccc54)ncnc32)C1 [Compound I-11, ((1S,3S)-3-{4-[(1S)-2,3-dihydro-1H-inden-1-ylamino]-7H-pyrrolo[2,3-d]-pyrimidin-7-yl}cyclopentyl)methyl sulfamate]
NS(=O)(=O)OC[C@@H]1C[C@@H](n2ccc3c(N[C@H]4CCOc5ccccc54)ncnc32)C[C@@H]1O [Compound I-12, ((1S,2S,4R)-4-{4-[(4S)-3,4-dihydro-2H-chromen-4-ylamino]-7H-pyrrolo[2,3-d]-pyrimidin-7-yl}-2-hydroxycyclopentyl)methyl sulfamate]
NS(=O)(=O)OC[C@@H]1C[C@@H](n2ccc3c(NCc4c(F)cccc4F)ncnc32)C[C@@H]1O [Compound I-15, ((1S,2S,4R)-4-{4-[(2,6-dif1uorobenzyl)amino]-7H-pyrrolo[2,3-d]pyrimidin-7-yl}-2-hydroxycyclopentyl)methyl sulfamate]
NS(=O)(=O)OC[C@@H]1C[C@@H](n2ccc3c(NCc4cc(Cl)cc(Cl)c4)ncnc32)C[C@@H]1O [Compound I-16, ((1S,2S,4R)-4-{4-[(3,5-dichlorobenzyl)amino]-7H-pyrrolo[2,3-d]pyrimidin-7-yl}-2-hydroxycyclopentyl)methyl sulfamate]
NS(=O)(=O)OC[C@@H]1C[C@@H](n2ccc3c(N[C@H]4CCc5ccccc54)ncnc32)[C@H](O)[C@@H]1O [Compound I-17, ((1S,2R,3S,4R)-4-{4-[(1S)-2,3-dihydro-1H-inden-1-ylamino]-7H-pyrrolo[2,3-d]-pyrimidin-7-yl}-2,3-dihydroxycyclopentyl)methyl sulfamate]
Nc1ncnc2c1ccn2[C@@H]1C[C@@H](COS(N)(=O)=O)[C@@H](O)C1 [Compound I-18, [(1S,2S,4R)-4-(4-amino-7H-pyrrolo[2,3-d]pyrimidin-7-yl)-2-hydroxycyclopentyl]methyl sulfamate]
NS(=O)(=O)OC[C@@H]1C[C@@H](n2ccc3c(NCc4ccc(Cl)cc4Cl)ncnc32)C[C@@H]1O [Compound I-19, ((1S,2S,4R)-4-{4-[(2,4-dichlorobenzyl)amino]-7H-pyrrolo[2,3-d]pyrimidin-7-yl}-2-hydroxycyclopentyl)methyl sulfamate]
NS(=O)(=O)OC[C@H]1C=C[C@H](n2ccc3c(N[C@H]4CCc5ccccc54)ncnc32)C1 [Compound I-20, ((1R,4R)-4-{4-[(1S)-2,3-dihydro-1H-inden-1-ylamino]-7H-pyrrolo[2,3-d]-pyrimidin-7-yl}cyclopent-2-en-1-yl)methyl sulfamate]
